Measured values published in patent US20040097478A1, “Remedies for retina and choroid diseases containing steroids as the active ingredient” (SANTEN PHARMACEUTICAL O., LTD, priority 2001, published 2004).
At least one structure is not confirmed: it was looked up by name or label, or the drawing left a doubt.

Tested on: Dispase-induced rabbit PVR models
Assay: Retinal detachment inhibition tests of betamethasone
Type: in vivo
Conditions: 10 mg/eye subconjunctival
Protocol: A 0.5% tropicamide-0.5% phenylephrine hydrochloride ophthalmic solution was instilled into eyes of rabbits to cause mydriasis, and a 1 ml/kg mixed solution (7:1) of a 5% ketamine hydrochloride injection and a 2% xylazine hydrochloride injection was administered intramuscularly to the rabbits to anesthetize them systemically. 0.4% oxybuprocaine was instilled into the eyes to anesthetize anterior segments of the eyes, and then 100 μl of a dispase solution prepared at a concentration of 0.05 U/100 μl with physiological saline was injected into vitreous bodies. Six weeks and ten weeks after injecting the dispase solution, PVR induced by dispase was confirmed by observing ocular fundus.
Betamethasone was dissolved in a phosphate buffer so that its concentration was 0.1 g/ml, and the solution was administered subconjunctivally in an amount of 100 μl immediately after injecting dispase. The phosphate buffer was administered similarly as a vehicle administration group.
The ocular fundus was observed 56 days after inducing by dispase, and PVR was judged by scores. Criteria of judgment are shown below. Scores of three or more were defined as exhibition of PVR, and pathogenesis rates of PVR (pathogenesis rates of retinal detachment) in respective groups were calculated according to the equation 2.
1: A vitreous membrane is observed. […]

## C[C@H]1C[C@H]2[C@@H]3CCC4=CC(=O)C=C[C@]4(C)[C@@]3(F)[C@@H](O)C[C@]2(C)[C@@]1(O)C(=O)CO [Betamethasone]
  Effect on PVR (in words): inhibits PVR
